The values that follow come from PMC7862700.

The chains behind the UniProt entries cited, without tags or fusion partners. Where a name states a change or a piece, a line headed by the entry shows the natural chain unless it says otherwise.
UniProt Q00613: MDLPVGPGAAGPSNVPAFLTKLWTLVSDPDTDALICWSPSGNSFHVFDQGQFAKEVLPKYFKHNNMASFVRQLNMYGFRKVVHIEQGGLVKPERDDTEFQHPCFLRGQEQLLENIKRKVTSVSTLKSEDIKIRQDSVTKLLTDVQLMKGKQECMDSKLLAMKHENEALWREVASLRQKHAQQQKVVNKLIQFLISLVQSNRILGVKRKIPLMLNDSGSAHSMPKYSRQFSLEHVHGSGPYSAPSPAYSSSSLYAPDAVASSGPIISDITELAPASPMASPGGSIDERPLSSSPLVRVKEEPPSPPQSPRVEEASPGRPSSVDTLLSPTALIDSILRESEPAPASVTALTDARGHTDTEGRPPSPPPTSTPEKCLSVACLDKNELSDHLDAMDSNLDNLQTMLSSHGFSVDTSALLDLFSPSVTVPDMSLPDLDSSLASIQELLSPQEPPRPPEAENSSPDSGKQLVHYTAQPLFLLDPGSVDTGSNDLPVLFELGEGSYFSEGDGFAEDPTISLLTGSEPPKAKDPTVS

One test concerns the target HSF1 (UniProt Q00613). Kind of test: DAPPL (digital affinity profiling via proximity ligation, sequencing). Particulars: 10 mM Tris-HCl pH 7.5, 50 mM NaCl, 1 mM DTT, 4% glycerol, room temperature, 30 min; GST-TFs on glutathione beads, 16-mer random dsDNA library, 0.1% …; high values mean tight binding; double strand, one strand shown; scale: fold enrichment (6-mer frequency, TF over GST control).

A further test has as its target T1, ELF2 (UniProt Q15723).
T1 sequence: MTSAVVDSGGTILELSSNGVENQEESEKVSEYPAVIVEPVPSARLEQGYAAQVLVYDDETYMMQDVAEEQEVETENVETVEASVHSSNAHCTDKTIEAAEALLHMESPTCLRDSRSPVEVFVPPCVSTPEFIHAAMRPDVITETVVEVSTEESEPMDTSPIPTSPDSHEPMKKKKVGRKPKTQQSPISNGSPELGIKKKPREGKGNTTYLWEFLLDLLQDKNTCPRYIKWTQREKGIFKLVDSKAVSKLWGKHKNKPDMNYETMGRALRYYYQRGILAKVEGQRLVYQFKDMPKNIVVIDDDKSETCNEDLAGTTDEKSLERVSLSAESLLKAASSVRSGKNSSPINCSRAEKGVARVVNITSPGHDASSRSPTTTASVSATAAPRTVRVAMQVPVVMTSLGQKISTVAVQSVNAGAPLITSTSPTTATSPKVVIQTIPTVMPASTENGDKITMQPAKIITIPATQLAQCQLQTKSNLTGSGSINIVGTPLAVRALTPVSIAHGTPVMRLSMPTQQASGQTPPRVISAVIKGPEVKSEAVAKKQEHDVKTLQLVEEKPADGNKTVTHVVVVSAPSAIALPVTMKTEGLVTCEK
The test is described as above. Particulars: 10 mM Tris-HCl pH 7.5, 50 mM NaCl, 1 mM DTT, 4% glycerol, room temperature, 30 min; GST-TFs on glutathione beads, 16-mer random dsDNA library, 0.1% …; high values mean tight binding; double strand, one strand shown; scale: fold enrichment (6-mer frequency, TF over GST control).

Only a part is listed here, and it is no random draw. For part of these data: At the low end of the ranking the order means little. Some of the results follow. For part of these data: The source does not settle which construct or isoform was used.

Take GGAGTC: the values for the binding signal in the test with HSF1 and in the test with ELF2 were 0.196 and 0.215, respectively.
In the same order, the values of GCACCA are 0.683 and 0.8.
TCGTAG: the binding signal with HSF1 came out at 0.849; in the test with ELF2, 0.776.
For the sequence CGCAGA, the figures for the binding signal with HSF1 and with ELF2 were 0.796 and 0.739, respectively.
Regarding TCGTAA, the binding signal turned out to be 1.12 with HSF1 and 0.882 with ELF2.
For AGGACA the same measures were 0.7 and 0.834.
As to AGCCAT, the binding signal worked out at 0.791 with HSF1 and 0.824 in the test with ELF2.
In the same order, the values of GGGACC are 0.496 and 0.635.
In the same order, the values of CGAGAG are 0.59 and 0.387.
AGAAAG: the binding signal worked out at 1.87 in the test with HSF1 and 0.806 with ELF2.
For GCAGAC the same measures were 0.559 and 0.71.
In the same order, the values of GCGCAT are 0.88 and 0.839.
For AGCCGT the same measures were 0.437 and 0.449.
Consider ATCGTG, for which the binding signal worked out at 0.415 with HSF1 and 0.393 with ELF2.
For GCCACG the same measures were 0.785 and 0.91.
For AGTCGA the same measures were 0.45 and 0.391.
For AAGTCG the same measures were 0.457 and 0.504.
CTGTGA: the binding signal with HSF1 was found to be 0.425; with ELF2, 0.476.
For the sequence TGCGTG, the binding signal with HSF1 turned out to be 0.541; in the test with ELF2, 0.569.
For CGGACT the same measures were 0.66 and 0.866.
For CCAGTC, the binding signal was determined as 0.274 with HSF1 and 0.267 with ELF2.
For TGAGTA the same measures were 0.436 and 0.412.
As to CAGTTT, the binding signal with HSF1 worked out at 0.814; in the test with ELF2, 0.882.
In the same order, the values of GAGCAC are 0.636 and 0.7.
As for GATCAG, the binding signal with HSF1 was 0.866; with ELF2 it was 0.699.
Consider CTAGAG, for which the binding signal was 1.58 with HSF1 and 0.814 with ELF2.
For AAGACG, the values for the binding signal in the test with HSF1 and with ELF2 were 0.821 and 0.802, respectively.
In the same order, the values of CAAGTC are 0.751 and 0.788.
In the same order, the values of AGTTAG are 0.757 and 0.802.
For GACAAA the same measures were 0.884 and 0.947.
As for GGTGTA, the binding signal with HSF1 amounted to 0.689; with ELF2 it was 0.817.
GGCCGA: the values for the binding signal with HSF1 and with ELF2 were 0.675 and 0.679, respectively.
For AGGCCA the same measures were 0.577 and 0.639.
Regarding GCCGGC, the binding signal with HSF1 was determined as 0.628; in the test with ELF2, 0.75.
On to GCGAGA, for which the values for the binding signal with HSF1 and in the test with ELF2 were 0.731 and 0.47, respectively.
As for ATCGGA, the binding signal turned out to be 0.453 in the test with HSF1 and 0.438 in the test with ELF2.
In the same order, the values of AGCGGT are 0.601 and 0.735.
In the same order, the values of GCATGT are 0.676 and 0.769.
For GGTGCT the same measures were 0.784 and 0.871.
Regarding GTCGTT, the binding signal in the test with HSF1 was 0.532; in the test with ELF2 it was 0.692.
In the case of AGAGCC, the binding signal with HSF1 was 0.644; with ELF2, 0.692.
GTGATT: the binding signal with HSF1 was found to be 0.847; with ELF2, 0.727.
For GGACGA the same measures were 0.627 and 0.605.
In the same order, the values of AAAGTG are 0.896 and 0.856.
In the same order, the values of GGGCGG are 0.313 and 0.44.
Consider TCAGGG, for which the binding signal with HSF1 came to 0.827; in the test with ELF2 it was 0.792.
In the same order, the values of AGATAC are 0.954 and 0.937.
For CGTGTG the same measures were 0.333 and 0.433.
For GGCGTA the same measures were 0.553 and 0.642.
Regarding TCGGCA, the binding signal in the test with HSF1 was 0.624; with ELF2, 0.672.
In the same order, the values of AAGGGG are 0.812 and 0.904.
In the case of GACGAA, the binding signal in the test with HSF1 worked out at 0.935; with ELF2, 0.858.
For CAGGGG the same measures were 0.505 and 0.551.
For GAGTGT, the figures for the binding signal in the test with HSF1 and with ELF2 were 0.491 and 0.501, respectively.
Turning to GCATCA, the binding signal with HSF1 amounted to 0.64; with ELF2, 0.699.
For ACGGCG the same measures were 0.619 and 0.782.
For CCTGTC the same measures were 0.657 and 0.917.
